From PubChem BioAssay AID504834 (National Center for Advancing Translational Sciences (NCATS), 2011)
Out of some 320,000 compounds screened, about 22,000 (6.9%) were called active. The inconclusive results got no clear call from the source; some entries with a clear call stand among them for comparison. The call rests on the fitted dose curve; in most records, active means well fitted inhibition curve with a large enough effect; inconclusive means small, poorly fitted or top-dose-only effect, or another doubt; inactive means no such curve, though single readings can be large or run the other way. Where the call is inconclusive, the potency comes from a doubtful curve fit.

Experiment: Primary qHTS for delayed death inhibitors of the malarial parasite plastid, 96 hour incubation
Details: P. falciparum luciferase reporter growth; series mostly up to 28.7 µM
Procedure, shortened: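 Two parasite generations (96 h, 37 C, 5% CO2) of compound exposure in infected erythrocytes (0.05% parasitemia, 2% hematocrit). Luciferase-reporter P. falciparum; decreased luminescence indicates inhibited growth, aimed at apicoplast-acting delayed death.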
Potency means the concentration at half of the fitted maximal effect.

Structure (SMILES) | Potency
O=C(Nc1ccc(Cl)c(Cl)c1)Nc1nnc(CC2=CCCCC2)s1 | inconclusive: 18.5 µM [inhibitor, single point]
Cc1ccc(C(=O)N/N=C\c2ccc[nH]2)cn1 | inactive
COC(=O)c1ccc(CSc2ccc3nnc(-c4ccc(F)cc4)n3n2)o1 | inconclusive: 10.4 µM [inhibitor, single point]
OCCN(CC#CCn1c2ccccc2c2ccccc21)CCO | inactive
COc1ccc(/C=C/C(=O)N2c3ccccc3Sc3ccc(C(F)(F)F)cc32)cc1 | inconclusive: 14.7 µM [inhibitor, single point]
COc1ccc(NC(=O)c2cn(CCC#N)nc2-c2ccccc2)cc1 | inactive
Cc1cc(C)c(C)c(S(=O)(=O)NCc2ccc(C(=O)N3CCN(C)CC3)cc2)c1C | inconclusive: 10.4 µM [inhibitor, single point]
O=C(NCC(c1ccco1)N1CCc2ccccc21)c1ccc([N+](=O)[O-])cc1 (stereo not given) | inconclusive: 18.5 µM [inhibitor, single point]
Cc1oc2cc3oc(=O)c(CCC(=O)NCCCN4CCCC4=O)c(C)c3cc2c1C | inactive
CCN(CC)CCCNC(=O)c1sc2nc(-c3ccc(F)cc3)cn2c1C | active: 13.1 µM
CN(Cc1ccccc1)C(=O)c1cccc(C(=O)N(C)Cc2ccccc2)c1 | active: 13.1 µM
O=C(O)c1ccnc(Cl)c1 | inconclusive: 18.5 µM [inhibitor, single point]
CCOC(=O)c1ccc2ncc(C(=O)OCC)c(NCCCN3CCOCC3)c2c1 | inconclusive: 0.586 µM [inhibitor, full curve]
CCOc1ccccc1NC(=O)CSc1nnc(Cc2ccc(OC)cc2)c(=O)n1N | inconclusive: 11.7 µM [inhibitor, partial curve, poor fit]
COc1ccc(CNC(=O)CCN2C(=O)[C@@H]3Cc4ccccc4CN3C2=O)cc1 | inconclusive: 18.5 µM [inhibitor, single point]
Cn1cc(S(=O)(=O)N2CCOCC2)cc1C(=O)Nc1ccc(Cl)cc1 | active: 7.38 µM
CC(C)(C)C(=O)NC1(C(F)(F)F)NC(=O)N(c2ccccc2F)C1=O (stereo not given) | inactive
Cc1cc(Cl)ccc1NC(=S)NCc1ccccc1Cl | inactive
CC(C)NCC(O)COCCOc1ccc(C(C)(C)C)cc1 (stereo not given) | inconclusive: 11.7 µM [inhibitor, single point]
C=CCNCCOc1ccc(C)cc1[N+](=O)[O-] | inactive
Cc1cccc(NC(=O)COc2cccc3c2CCN(C)C3=O)c1C | inconclusive: 0.0657 µM [inhibitor, full curve, poor fit]
CC1c2cc3c(cc2CCN1C(=O)c1ccc(Br)cc1)OCCCO3 (stereo not given) | inconclusive: 18.5 µM [inhibitor, single point]
Cc1ccccc1OCC(=O)NCC(c1cccs1)N1CCOCC1 (stereo not given) | inactive
COc1ccc2oc(=Nc3cc(F)ccc3F)c(C(N)=O)cc2c1 | inactive

An excerpt from above in order of heavy-atom count, smallest number first.
Structure (SMILES) | Potency
Cc1ccc(C(=O)N/N=C\c2ccc[nH]2)cn1 | inactive
OCCN(CC#CCn1c2ccccc2c2ccccc21)CCO | inactive
COc1ccc(NC(=O)c2cn(CCC#N)nc2-c2ccccc2)cc1 | inactive
COc1ccc(CNC(=O)CCN2C(=O)[C@@H]3Cc4ccccc4CN3C2=O)cc1 | inconclusive: 18.5 µM [inhibitor, single point]
COc1ccc(/C=C/C(=O)N2c3ccccc3Sc3ccc(C(F)(F)F)cc32)cc1 | inconclusive: 14.7 µM [inhibitor, single point]

Next part

Structure (SMILES) | Potency
Cc1c(Cc2ccccc2)sc(/N=C/c2ccc3ccccc3c2)c1C(N)=O | inactive
Cc1cc(-c2nnc(CCC(=O)N(CC3CCC3)CC3CCCO3)o2)no1 (stereo not given) | inactive
CC1=CC2=NC(=O)/C(=C\c3cccn3CCOc3ccccc3)C(=N)N2O1 | inconclusive: 18.5 µM [inhibitor, single point]
CCOC(=O)c1c(NC(=O)c2ccc(-n3cnnn3)cc2)sc2c1CCCC2 | inactive
Cc1n[nH]c(C)c1CN(C)C(=O)C1CCC(=O)N(CC2CCCCC2)C1 (stereo not given) | inconclusive: 18.5 µM [inhibitor, single point]
COc1cc(/C=C/c2ccc3cccc(OC)c3n2)c(OC(C)=O)c([N+](=O)[O-])c1 | inconclusive: 18.5 µM [inhibitor, single point]
O=S(=O)(c1ccc(-c2ccno2)s1)N1CCCCC1 | inactive
O=C(CN1C(=O)S/C(=C\c2ccc(F)cc2)C1=O)Nc1cccc(S(=O)(=O)NCc2ccco2)c1 | inconclusive: 18.5 µM [inhibitor, single point]
COc1ccc2[nH]c3c(NCCN4CCCCC4)ncnc3c2c1 | inactive
CCCCN1C2CCCC1CC(NC(=O)C1CCCCC1)C2 (stereo not given) | inconclusive: 13.1 µM [inhibitor, single point]
O=C(O)c1ccc(O)cc1O | inconclusive: 2.94 µM [inhibitor, full curve]
COCCN1Cc2cc(=O)n3c([nH]c4ccccc43)c2C1=N | inconclusive: 16.5 µM [inhibitor, single point]
CN(C)S(=O)(=O)c1cccc(NC(=O)COc2ccc(C(=O)c3ccccc3)cc2)c1 | inconclusive: 8.28 µM [inhibitor, partial curve, poor fit]
O=[N+]([O-])c1ccc(Nc2ccccc2)nc1 | inactive
CNC(=S)N1CCC(NC(=O)C(Cc2ccccc2)NC(C)=O)CC1 (stereo not given) | inactive
CC(C)[C@@H](NC(=O)C1CCN(C(=O)[C@@H]2CCCN2C(=O)OC(C)(C)C)CC1)C(=O)NCc1ccc(F)cc1 | inconclusive: 11.7 µM [inhibitor, single point]
C=CCn1c(SCc2csc(C)n2)nc2sc3c(c2c1=O)CCCC3 | inactive
CCN(CC)c1ccc(/C=N/N2C(=O)c3ccccc3C2=O)c(O)c1 | inconclusive: 18.5 µM [inhibitor, single point]
CCS(=O)(=O)NCc1ccc2[nH]c3c(c2c1)CCCC3 | inconclusive: 5.22 µM [inhibitor, partial curve, poor fit]
Cn1c2ccccc2c2cc(/C=N/NC(=O)c3cc(O)cc(O)c3)ccc21 | inconclusive: 14.7 µM [inhibitor, partial curve, poor fit]
COc1ccc(S(=O)(=O)N2CCCCCC2)cc1C(=O)N(C)CC(=O)Nc1c(Cl)cccc1Cl | inactive
COc1cccc(NC(=O)CSc2ccc3nnc(-c4ccncc4)n3n2)c1 | inconclusive: 18.5 µM [inhibitor, single point]
Cc1ccc(Nc2nc(Cl)nc(N(C)C#N)n2)cc1 | active: 7.38 µM
COc1ccc(CNC(=O)CCCn2ccc3cc(S(=O)(=O)N4CCCC4)ccc32)cc1 | inconclusive: 5.22 µM [inhibitor, partial curve, poor fit]
CCN(CC)S(=O)(=O)c1cc(NC(=O)c2ccc(Br)s2)ccc1C | active: 14.7 µM

Structure (SMILES) | Potency
CCc1nc2c(c(=O)c3ccccc3n2C)c(=O)n1C1CCCCCC1 | inconclusive: 18.5 µM [inhibitor, single point]
CC1(C)Cc2ccccc2C2=NNC(=O)C2=N1 | inactive
CC(C)n1nnnc1SCC(=O)NCCc1ccccc1 | inactive
O=C(CSc1ncccn1)Nc1ccc(S(=O)(=O)N2CCCCC2)cc1 | inconclusive: 0.828 µM [inhibitor, full curve, poor fit]
Cc1nc(C)n(C(C)CNS(=O)(=O)c2ccc(C)c(C)c2)n1 (stereo not given) | inactive
CCCCn1c(SCc2nc3ccccc3s2)nc2ccccc2c1=O | inactive
Cc1c(NP(=O)(C(C)(C)C)C(C)(C)C)c(=O)n(-c2ccccc2)n1C | inactive
CCc1cccc2c1NC(=O)C2(O)CC(=O)c1cccs1 (stereo not given) | inactive
N/C(=N\OC(=O)c1ccc2ccccc2c1)c1ccncc1 | inactive
Cc1cc(C)c2[nH]c(=O)c(C(c3nnnn3C3CCCC3)N3CCOCC3)cc2c1 (stereo not given) | inconclusive: 1.31 µM [inhibitor, partial curve]
Cc1cc2c(c(=O)o1)C1O[C@](c3ccsc3)(Cc3ccccc31)O2 | inconclusive: 1.69 µM [inhibitor, single point]
COc1ccc(CCNC(=O)C2CCCN2S(=O)(=O)c2ccc(F)cc2)cc1OC (stereo not given) | inconclusive: 10.4 µM [inhibitor, single point]
Cc1ccc(NC(=S)N(CCN2CCOCC2)Cc2cc3cc4c(cc3[nH]c2=O)OCO4)cc1 | inconclusive: 18.5 µM [inhibitor, single point]
O=C(NCCOc1ccccc1)c1cc([N+](=O)[O-])ccc1N1CCOCC1 | inconclusive: 0.828 µM [inhibitor, full curve, poor fit]
CC(C)(C)n1nc2c(c1NC(=O)COc1ccc(Cl)cc1)CSC2 | active: 4.65 µM
CCNC(=O)NC(=O)C(C)Sc1nc2ccccc2n1CC(C)C (stereo not given) | inconclusive: 18.5 µM [inhibitor, single point]
CCN(CC)S(=O)(=O)c1ccc(C(=O)NC2=NCCS2)cc1 | inactive
O=C(Nc1ccc(S(=O)(=O)Nc2nccs2)cc1)c1ccc(F)c(S(=O)(=O)N2CCOCC2)c1 | inconclusive: 4.15 µM [inhibitor, partial curve, poor fit]
COc1ccc(-c2csc3ncnc(NCCN4CCOCC4)c23)cc1 | inconclusive: 10.4 µM [inhibitor, single point]
Cc1csc(NC(=O)CSc2nnc(C)s2)n1 | inactive
O=C(Cc1n[nH]c(=O)c2ccccc12)Nc1cccc(S(=O)(=O)N2CCCCCC2)c1 | inconclusive: 2.33 µM [inhibitor, partial curve, poor fit]
Cc1cc(C)nc(SCC(=O)c2ccc(O)c(O)c2)n1 | inactive
CC(C)CNC(=O)CCc1nc(-c2ccccc2)no1 | inactive
O=C(CCC1CCCN(C(=O)c2cccnc2)C1)NCc1ccccc1F (stereo not given) | inactive
O=C1c2ccccc2C(=O)N1CC1c2ccccc2CCN1S(=O)(=O)c1ccccc1 (stereo not given) | inconclusive: 5.22 µM [inhibitor, partial curve, poor fit]

Shown as labelled records: part of the list above.
CCN(CC)c1ccc(/C=N/N2C(=O)c3ccccc3C2=O)c(O)c1
  Potency: inconclusive: 18.5 µM [inhibitor, single point]
CCS(=O)(=O)NCc1ccc2[nH]c3c(c2c1)CCCC3
  Potency: inconclusive: 5.22 µM [inhibitor, partial curve, poor fit]
